# This is one part of the list.
# Key:
# Assay in all cases: glycan array binding signal (z-score within array); higher = stronger binding
# Conditions in all cases: glycan notation: IUPAC condensed, linker removed
# [1] = target: Neu5Ac(a2-3)[Neu5Ac(a2-6)]GalNAc
# In short: (§1)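 The Consortium for Functional Glycomics database supplied 3228 glycan arrays, of which those lacking an available protein sequence were dropped. The binding signal, a within-array Z-score, was averaged across arrays of the same protein sequence and across linkers. Negative scores can be read as non-binding.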
# [2] = target: Neu5Ac(a2-6)Gal
# In short: as §1
# [3] = target: Neu5Ac(a2-6)Gal(b1-3)GlcNAc(b1-3)[Gal(b1-4)GlcNAc(b1-6)]Gal(b1-4)Glc
# In short: as §1
# [4] = target: Neu5Ac(a2-6)Gal(b1-4)Glc
# In short: as §1
# [5] = target: Neu5Ac(a2-6)Gal(b1-4)GlcNAc
# In short: as §1
# [6] = target: Neu5Ac(a2-6)Gal(b1-4)GlcNAc(b1-2)Man
# In short: as §1
# [7] = target: Neu5Ac(a2-6)Gal(b1-4)GlcNAc(b1-2)Man(a1-3)Man(b1-4)GlcNAc(b1-4)GlcNAc
# In short: as §1
# [8] = target: Neu5Ac(a2-6)Gal(b1-4)GlcNAc(b1-2)Man(a1-3)[Gal(b1-4)GlcNAc(b1-2)Man(a1-6)]Man(b1-4)GlcNAc(b1-4)GlcNAc
# In short: as §1
# [9] = target: Neu5Ac(a2-6)Gal(b1-4)GlcNAc(b1-2)Man(a1-3)[GlcNAc(b1-2)Man(a1-6)]Man(b1-4)GlcNAc(b1-4)GlcNAc
# In short: as §1
# [10] = target: Neu5Ac(a2-6)Gal(b1-4)GlcNAc(b1-2)Man(a1-3)[GlcNAc(b1-2)Man(b1-4)GlcNAc(b1-2)Man(a1-6)]Man(b1-4)GlcNAc(b1-4)GlcNAc
# In short: as §1
# [11] = target: Neu5Ac(a2-6)Gal(b1-4)GlcNAc(b1-2)Man(a1-3)[GlcNAc(b1-4)][Neu5Ac(a2-6)Gal(b1-4)GlcNAc(b1-2)Man(a1-6)]Man(b1-4)GlcNAc(b1-4)GlcNAc
# In short: as §1
# [12] = target: Neu5Ac(a2-6)Gal(b1-4)GlcNAc(b1-2)Man(a1-3)[Man(a1-6)]Man(b1-4)GlcNAc(b1-4)GlcNAc
# In short: as §1
# [13] = target: Neu5Ac(a2-6)Gal(b1-4)GlcNAc(b1-2)Man(a1-3)[Neu5Ac(a2-3)Gal(b1-4)GlcNAc(b1-2)Man(a1-6)]Man(b1-4)GlcNAc(b1-4)GlcNAc
# In short: as §1
# [14] = target: Neu5Ac(a2-6)Gal(b1-4)GlcNAc(b1-2)Man(a1-3)[Neu5Ac(a2-6)Gal(b1-4)GlcNAc(b1-2)Man(a1-6)]Man(b1-4)GlcNAc(b1-4)GlcNAc
# In short: as §1
# [15] = target: Neu5Ac(a2-6)Gal(b1-4)GlcNAc(b1-2)Man(a1-3)[Neu5Ac(a2-6)Gal(b1-4)GlcNAc(b1-2)Man(a1-6)]Man(b1-4)GlcNAc(b1-4)[Fuc(a1-6)]GlcNAc
# In short: as §1
# [16] = target: Neu5Ac(a2-6)Gal(b1-4)GlcNAc(b1-2)Man(a1-6)Man(b1-4)GlcNAc(b1-4)GlcNAc
# In short: as §1
# [17] = target: Neu5Ac(a2-6)Gal(b1-4)GlcNAc(b1-2)Man(a1-6)[Gal(b1-4)GlcNAc(b1-2)Man(a1-3)]Man(b1-4)GlcNAc(b1-4)GlcNAc
# In short: as §1
# [18] = target: Neu5Ac(a2-6)Gal(b1-4)GlcNAc(b1-2)Man(a1-6)[GlcNAc(b1-2)Man(a1-3)]Man(b1-4)GlcNAc(b1-4)GlcNAc
# In short: as §1
# [19] = target: Neu5Ac(a2-6)Gal(b1-4)GlcNAc(b1-2)Man(a1-6)[Man(a1-3)]Man(b1-4)GlcNAc(b1-4)GlcNAc
# In short: as §1
# [20] = target: Neu5Ac(a2-6)Gal(b1-4)GlcNAc(b1-2)[Neu5Ac(a2-6)Gal(b1-4)GlcNAc(b1-4)]Man(a1-3)[GlcNAc(b1-4)][Neu5Ac(a2-6)Gal(b1-4)GlcNAc(b1-2)[Neu5Ac(a2-6)Gal(b1-4)GlcNAc(b1-6)]Man(a1-6)]Man(b1-4)GlcNAc(b1-4)GlcNAc
# In short: as §1
# [21] = target: Neu5Ac(a2-6)Gal(b1-4)GlcNAc(b1-2)[Neu5Ac(a2-6)Gal(b1-4)GlcNAc(b1-4)]Man(a1-3)[GlcNAc(b1-4)][Neu5Ac(a2-6)Gal(b1-4)GlcNAc(b1-4)Man(a1-6)]Man(b1-4)GlcNAc(b1-4)GlcNAc
# In short: as §1
# [22] = target: Neu5Ac(a2-6)Gal(b1-4)GlcNAc(b1-2)[Neu5Ac(a2-6)Gal(b1-4)GlcNAc(b1-6)]Man(a1-6)[Neu5Ac(a2-6)Gal(b1-4)GlcNAc(b1-2)Man(a1-3)][GlcNAc(b1-4)]Man(b1-4)GlcNAc(b1-4)GlcNAc
# In short: as §1
# [23] = target: Neu5Ac(a2-6)Gal(b1-4)GlcNAc(b1-3)Gal(b1-3)GlcNAc
# In short: as §1
# [24] = target: Neu5Ac(a2-6)Gal(b1-4)GlcNAc(b1-3)Gal(b1-4)GlcNAc
# In short: as §1
# [25] = target: Neu5Ac(a2-6)Gal(b1-4)GlcNAc(b1-3)Gal(b1-4)GlcNAc(b1-2)Man(a1-3)[Neu5Ac(a2-6)Gal(b1-4)GlcNAc(b1-3)Gal(b1-4)GlcNAc(b1-2)Man(a1-6)]GalNAc
# In short: as §1
# [26] = target: Neu5Ac(a2-6)Gal(b1-4)GlcNAc(b1-3)Gal(b1-4)GlcNAc(b1-3)Gal(b1-4)GlcNAc
# In short: as §1
# [27] = target: Neu5Ac(a2-6)Gal(b1-4)GlcNAc(b1-3)Gal(b1-4)GlcNAc(b1-3)Gal(b1-4)GlcNAc(b1-2)Man(a1-3)[Neu5Ac(a2-6)Gal(b1-4)GlcNAc(b1-3)Gal(b1-4)GlcNAc(b1-3)Gal(b1-4)GlcNAc(b1-2)Man(a1-6)]GalNAc
# In short: as §1
# [28] = target: Neu5Ac(a2-6)Gal(b1-4)GlcNAc(b1-3)Gal(b1-4)GlcNAc(b1-3)GalNAc
# In short: as §1
# [29] = target: Neu5Ac(a2-6)Gal(b1-4)GlcNAc(b1-3)Gal(b1-4)GlcNAc(b1-3)[Neu5Ac(a2-6)Gal(b1-4)GlcNAc(b1-3)Gal(b1-4)GlcNAc(b1-6)]GalNAc
# In short: as §1
# [30] = target: Neu5Ac(a2-6)Gal(b1-4)GlcNAc(b1-3)Gal(b1-4)GlcNAc(b1-6)[Gal(b1-3)]GalNAc
# In short: as §1
# [31] = target: Neu5Ac(a2-6)Gal(b1-4)GlcNAc(b1-3)Gal(b1-4)[Fuc(a1-3)]GlcNAc(b1-3)Gal(b1-4)[Fuc(a1-3)]GlcNAc
# In short: as §1
# [32] = target: Neu5Ac(a2-6)Gal(b1-4)GlcNAc(b1-3)GalNAc
# In short: as §1
# [33] = target: Neu5Ac(a2-6)Gal(b1-4)GlcNAc(b1-3)[Neu5Ac(a2-6)Gal(b1-4)GlcNAc(b1-6)]GalNAc
# In short: as §1
# [34] = target: Neu5Ac(a2-6)Gal(b1-4)GlcNAc(b1-6)GalNAc
# In short: as §1
# [35] = target: Neu5Ac(a2-6)Gal(b1-4)GlcNAc(b1-6)[Gal(b1-3)GlcNAc(b1-3)]Gal(b1-4)Glc
# In short: as §1
# [36] = target: Neu5Ac(a2-6)Gal(b1-4)GlcNAc(b1-6)[Gal(b1-3)]GalNAc
# In short: as §1
# [37] = target: Neu5Ac(a2-6)Gal(b1-4)GlcNAc6S
# In short: as §1
# [38] = target: Neu5Ac(a2-6)GalNAc
# In short: as §1
# [39] = target: Neu5Ac(a2-6)GalNAc(b1-4)GlcNAc
# In short: as §1
# [40] = target: Neu5Ac(a2-6)GalNAc(b1-4)GlcNAc6S
# In short: as §1
# [41] = target: Neu5Ac(a2-6)GlcNAc(b1-4)GlcNAc
# In short: as §1
# [42] = target: Neu5Ac(a2-6)GlcNAc(b1-4)GlcNAc(b1-4)GlcNAc
# In short: as §1
# [43] = target: Neu5Ac(a2-8)Neu5Ac
# In short: as §1
# [44] = target: Neu5Ac(a2-8)Neu5Ac(a2-3)Gal(b1-3)GalNAc(b1-4)[Neu5Ac(a2-3)]Gal(b1-4)Glc
# In short: as §1
# [45] = target: Neu5Ac(a2-8)Neu5Ac(a2-3)Gal(b1-3)GalNAc(b1-4)[Neu5Ac(a2-8)Neu5Ac(a2-3)]Gal(b1-4)Glc
# In short: as §1
binder,measurement,setting,value
GST Gap3 (Streptococcus parasanguinis) (protein) MTKQLISEIYWNEIRKGENYLYGSQIKFQEDLVNFYNPQLASGKPIVTFKSRTNYQGDRHSPDLPILIQGNRYLLEYQIDAVPANSFFLQLDFFNRQAEQIESIVLRNSGESFIFPKDTFTYTLTLMSAGCQSVTYQKFMIYDINDEEKKNHIVENRYLRELLPKDLDLVKNLIEYI,glycan array binding signal (z-score),[1],-0.623
same,glycan array binding signal (z-score),[2],-0.241
same,glycan array binding signal (z-score),[3],-0.488
same,glycan array binding signal (z-score),[4],-0.263
same,glycan array binding signal (z-score),[5],-0.297
same,glycan array binding signal (z-score),[6],-0.291
same,glycan array binding signal (z-score),[7],0.056
same,glycan array binding signal (z-score),[8],0.937
same,glycan array binding signal (z-score),[9],-0.069
same,glycan array binding signal (z-score),[10],-0.09
same,glycan array binding signal (z-score),[11],-0.278
same,glycan array binding signal (z-score),[12],0.288
same,glycan array binding signal (z-score),[13],-0.415
same,glycan array binding signal (z-score),[14],-0.174
same,glycan array binding signal (z-score),[15],-0.244
same,glycan array binding signal (z-score),[16],-0.073
same,glycan array binding signal (z-score),[17],-0.283
same,glycan array binding signal (z-score),[18],-0.269
same,glycan array binding signal (z-score),[19],-0.082
same,glycan array binding signal (z-score),[20],-0.294
same,glycan array binding signal (z-score),[21],0.042
same,glycan array binding signal (z-score),[22],-0.109
same,glycan array binding signal (z-score),[23],-0.335
same,glycan array binding signal (z-score),[24],-0.399
same,glycan array binding signal (z-score),[25],-0.461
same,glycan array binding signal (z-score),[26],-0.192
same,glycan array binding signal (z-score),[27],-0.169
same,glycan array binding signal (z-score),[28],-0.222
same,glycan array binding signal (z-score),[29],-0.09
same,glycan array binding signal (z-score),[30],1.19
same,glycan array binding signal (z-score),[31],0.104
same,glycan array binding signal (z-score),[32],0.718
same,glycan array binding signal (z-score),[33],1.19
same,glycan array binding signal (z-score),[34],0.75
same,glycan array binding signal (z-score),[35],-0.147
same,glycan array binding signal (z-score),[36],-0.394
same,glycan array binding signal (z-score),[37],-0.035
same,glycan array binding signal (z-score),[38],-0.302
same,glycan array binding signal (z-score),[39],-0.336
same,glycan array binding signal (z-score),[40],-0.379
same,glycan array binding signal (z-score),[41],-0.465
same,glycan array binding signal (z-score),[42],1.94
same,glycan array binding signal (z-score),[43],-0.152
same,glycan array binding signal (z-score),[44],1.1
same,glycan array binding signal (z-score),[45],0.064

# Already shown: entries from further up.
binder,measurement,setting,value
GST Gap3 (Streptococcus parasanguinis) (protein) MTKQLISEIYWNEIRKGENYLYGSQIKFQEDLVNFYNPQLASGKPIVTFKSRTNYQGDRHSPDLPILIQGNRYLLEYQIDAVPANSFFLQLDFFNRQAEQIESIVLRNSGESFIFPKDTFTYTLTLMSAGCQSVTYQKFMIYDINDEEKKNHIVENRYLRELLPKDLDLVKNLIEYI,glycan array binding signal (z-score),[24],-0.399
same,glycan array binding signal (z-score),[25],-0.461
same,glycan array binding signal (z-score),[26],-0.192
same,glycan array binding signal (z-score),[27],-0.169
same,glycan array binding signal (z-score),[28],-0.222
same,glycan array binding signal (z-score),[29],-0.09
same,glycan array binding signal (z-score),[30],1.19
same,glycan array binding signal (z-score),[31],0.104
